{
  "source": "patent US20120207753A1",
  "about": "“METHODS OF USING CD44 FUSION PROTEINS TO TREAT CANCER” (CENTRE HOSPITALIER UNIVERSITAIRE VAUDOIS, priority 2009, published 2012)",
  "key": {"U251 cells": {"tested_on": "U251 cells", "assay": "Intracranial tumor growth and survival, transduced U251 cells in Rag-1 mice", "format": "in vivo, human", "details": "intracranial U251-Luc depleted of CD44; single dose BCNU 10 mg/kg iv or TMZ 5 mg/kg ip", "protocol": "(§1) FIG. 12. Antagonists of CD44 are effective therapeutic agents against human GBM in mouse models. A, U87MG and U251 cells were transduced with the retroviruses carrying empty vector and the expression constructs of hsCD44s-Fc, hsCD44v8-v10-Fc, and hsCD44v3-v10 and their serum free cell culture supernatants were collected and analyzed on Western blots using anti-CD44 antibody (Santa Cruz) or anti-human IgG antibody. The molecular weight bars correspond to 199 kDa and 116 kDa. B, 2×10^6 of the transduced U87MG and U251 cells were injected subcutaneously per mouse. Growth rates of the subcutaneous tumors were determined and expressed as the mean of tumor volume (mm^3)+/−SD. Six mice were used for each construct. C, Survival rates of mice following the intracranial injections of transduced U87MG (C-a) and U251 (C-b-c) cells infected with the retroviruses carrying the empty expression vectors, hsCD44s-Fc, hsCD44v8-v10-Fc, hsCD44v3-v10, hsCD44sR41A-Fc, or hsCD44v3-v10R41A-Fc constructs as indicated in the panels. […]\n(§2) Mice were used in accordance with the approved IACUC Protocol. […] Following injection, mice were closely monitored and the duration of their survival was recorded. […] Number of surviving mice was recorded. The survival rates were calculated as follows: survival rate (%)=(number of mice still alive/total number of experimental mice)×100%. […]"}, "U87MG cells": {"tested_on": "U87MG cells", "assay": "Intracranial tumor growth and survival, transduced U87MG cells in Rag-1 mice", "format": "in vivo, human", "details": "intracranial U87MG-Luc depleted of CD44; single dose BCNU 10 mg/kg iv or TMZ 5 mg/kg ip", "protocol": "as §1, §2"}},
  "note": "At least one compound was matched to its structure with a doubt left.",
  "data": [
    {"compound": "Cn1nnc2c(C(N)=O)ncn2c1=O", "note": "[TMZ, temozolomide]", "values": [
      {"measurement": "inhibition of intracranial glioma formation (median survival), drug combined with CD44 knockdown", "setting": "U251 cells", "result": "synergistic inhibition of intracranial glioma formation"},
      {"measurement": "inhibition of intracranial glioma formation (median survival), drug combined with CD44 knockdown", "setting": "U87MG cells", "result": "synergistic inhibition of intracranial glioma formation"}
    ]}
  ]
}
